These are yes or no findings as the source states them, for the method shown. In cells and extracts the contact can be indirect. A result given as binding can be weak or reduced; the word gives no strength. Where a sequence is shown, tags or fusion partners need not be part of it.

Chains of the proteins cited; added tags and fusions are not shown. Lines headed by an entry give the natural chain unless they say otherwise; changes in a name come on top.
UniProt O14656: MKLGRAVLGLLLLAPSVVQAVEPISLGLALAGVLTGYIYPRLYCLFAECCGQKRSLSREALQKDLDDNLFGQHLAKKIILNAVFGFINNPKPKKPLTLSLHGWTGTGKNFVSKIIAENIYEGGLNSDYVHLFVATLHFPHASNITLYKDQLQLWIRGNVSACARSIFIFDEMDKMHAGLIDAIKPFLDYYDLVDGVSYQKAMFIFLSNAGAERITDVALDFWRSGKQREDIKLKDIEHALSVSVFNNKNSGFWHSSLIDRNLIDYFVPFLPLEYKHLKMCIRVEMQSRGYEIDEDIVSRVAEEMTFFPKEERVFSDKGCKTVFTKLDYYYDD
UniProt P39685: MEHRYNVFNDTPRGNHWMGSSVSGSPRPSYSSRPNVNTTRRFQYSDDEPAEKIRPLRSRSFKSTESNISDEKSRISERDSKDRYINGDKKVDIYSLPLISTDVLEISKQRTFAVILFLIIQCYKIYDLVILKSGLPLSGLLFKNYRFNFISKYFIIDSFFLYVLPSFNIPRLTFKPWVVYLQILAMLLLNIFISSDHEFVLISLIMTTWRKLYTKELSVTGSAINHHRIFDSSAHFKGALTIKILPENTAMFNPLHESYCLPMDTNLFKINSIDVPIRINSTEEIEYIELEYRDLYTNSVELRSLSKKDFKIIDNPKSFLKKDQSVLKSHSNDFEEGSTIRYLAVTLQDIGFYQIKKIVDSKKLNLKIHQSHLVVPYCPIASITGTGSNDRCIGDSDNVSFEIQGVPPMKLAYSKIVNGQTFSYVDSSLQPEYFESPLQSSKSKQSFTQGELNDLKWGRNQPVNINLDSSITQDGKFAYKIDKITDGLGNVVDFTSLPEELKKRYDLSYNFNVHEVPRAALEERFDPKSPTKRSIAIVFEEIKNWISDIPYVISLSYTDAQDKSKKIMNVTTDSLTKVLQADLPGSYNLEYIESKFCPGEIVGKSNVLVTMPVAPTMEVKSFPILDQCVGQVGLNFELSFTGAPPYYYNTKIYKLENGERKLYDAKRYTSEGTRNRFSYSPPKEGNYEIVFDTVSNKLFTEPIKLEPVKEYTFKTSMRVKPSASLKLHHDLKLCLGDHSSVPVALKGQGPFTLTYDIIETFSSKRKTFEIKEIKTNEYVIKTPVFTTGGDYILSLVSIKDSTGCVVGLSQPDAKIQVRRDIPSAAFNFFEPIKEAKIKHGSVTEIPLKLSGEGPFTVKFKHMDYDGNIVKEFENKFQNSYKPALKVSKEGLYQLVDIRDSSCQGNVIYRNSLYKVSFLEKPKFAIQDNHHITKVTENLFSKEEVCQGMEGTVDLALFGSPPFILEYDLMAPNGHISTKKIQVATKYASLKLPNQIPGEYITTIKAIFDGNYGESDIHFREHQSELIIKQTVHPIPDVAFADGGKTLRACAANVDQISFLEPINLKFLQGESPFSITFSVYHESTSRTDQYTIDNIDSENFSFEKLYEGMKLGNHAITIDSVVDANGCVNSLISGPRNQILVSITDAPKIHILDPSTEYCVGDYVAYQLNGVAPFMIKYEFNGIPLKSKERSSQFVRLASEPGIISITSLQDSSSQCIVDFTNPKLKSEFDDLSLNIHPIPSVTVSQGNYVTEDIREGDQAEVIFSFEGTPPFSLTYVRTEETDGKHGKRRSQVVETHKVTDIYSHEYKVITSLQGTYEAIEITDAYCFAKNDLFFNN

The target of the test is TorsinA-ΔE-GFP (human) (UniProt O14656). Description: co-IP.

As for Pom152 (from UniProt P39685 1-1337), the binding result is on record as “no binding”.

B1: Mps3-HA (protein, UniProt P47069 1-682)
chain: MNNSNEHRREEAGAANEQMPYNKAVKSAYADVLKDKMNREQEISLRAIKKGIYTDGGETDNYDMDKENDSAYEMFKKNLDFPLDQHNDDDDDDPYIEDNGQETDGYSDEDYTDEADKSFIEDSDSDSYDLESNSDFEENLESSGEAKKLKWRTYIFYGGLFFVFYFFGSFLMTTVKNNDLESHSSGATSSPGKSFSNLQKQVNHLYSELSKRDEKHSSELDKTVKIIVSQFEKNIKRLLPSNLVNFENDINSLTKQVETISTSMSELQRRNHKFTVENVTQWQDQLVKQLDTHLPQEIPVVINNSSSLLIIPELHNYLSALISDVIESPGIGTAGSAESRWEYDLNRYVKEILSNELQYIDKDYFIQEMNRRLQSNKQEIWEEITNRLETQQQQQQQQVQQDYSNVPQQYSSILMKRLIHQIYNSNQHQWEDDLDFATYVQGTKLLNHLTSPTWRQGSGVQPIELLTDSKQSSSTYWQCENEPGCSWAIRFKTPLYLTKISYMHGRFTNNLHIMNSAPRLISLYVKLSQTKEIKALQTLANQYGFGQHHKRDRNYIKIAKFEYRLTDSRIRQQMYLPPWFIQLKPLVRSIVFQVDENYGNKKFISLRKFIINGVTPQDLQIIENNEFPVLLGDTPEYGVTQNTDEGKRKVLLSKPPYASSSTSTKFHPASNVPSFGQDELDQ
Consider B1, for which the binding entry is given as “binds”.

Values taken from article doi:10.1101/421909.
